Several values for one entry are separate records, joined by “and”; a condition that tells them apart may be missing. Equal entries are not always repeated. The source gives many values for each of these; only a part stands here.
Target: T1, wt IDH1 (Homo sapiens, UniProt O75874)
T1 construct: made in house; host or cells: Escherichia coli BL21(DE3) pLyS
Assay: Absorbance assay (NADPH, 340 nm): kinetics of oxidative reaction (isocitrate to 2OG) by wt IDH1
Assay type: biochemical
Description: All experiments were performed in (at least) triplicate.
KM values were determined by varying concentrations of the substrate/cofactor under investigation while maintaining the concentrations of other components using standard conditions. […] Graphs were fitted using GraphPad Prism to obtain kinetic parameters.

Sequences of proteins named here, by UniProt entry; tags and fusion partners are left off. Residues count along the entry.
UniProt O75874, 2-414: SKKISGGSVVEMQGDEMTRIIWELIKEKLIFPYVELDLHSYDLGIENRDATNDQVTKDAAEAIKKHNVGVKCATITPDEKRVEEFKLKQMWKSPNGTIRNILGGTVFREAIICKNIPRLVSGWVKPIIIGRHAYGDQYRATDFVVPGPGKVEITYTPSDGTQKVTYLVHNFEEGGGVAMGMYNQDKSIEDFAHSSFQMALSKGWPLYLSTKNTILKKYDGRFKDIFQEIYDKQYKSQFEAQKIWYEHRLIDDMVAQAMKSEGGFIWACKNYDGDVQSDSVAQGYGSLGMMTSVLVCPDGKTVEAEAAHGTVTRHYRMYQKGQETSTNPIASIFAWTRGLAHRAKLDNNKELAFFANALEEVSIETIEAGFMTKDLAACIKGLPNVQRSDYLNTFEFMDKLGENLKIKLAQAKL

Velocity (Fig. S3b, MnCl2 as metal, [NADP+] 300 μM): 0.3195 µM/s and 0.3577 µM/s
Compound: NC(=O)c1ccc[n+](C2OC(COP(=O)(O)OP(=O)([O-])OCC3OC(n4cnc5c(N)ncnc54)C(OP(=O)(O)O)C3O)C(O)C2O)c1 (centres unmarked) [NADP^+]
Velocity (Fig. S2b, [NADP+] 4.6875 μM): 0.03088 µM/s and 0.02351 µM/s and 0.02544 µM/s
Velocity (Fig. S3b, MnCl2 as metal, [NADP+] 600 μM): 0.3169 µM/s and 0.3403 µM/s and 0.3214 µM/s
Velocity (Fig. S3b, MnCl2 as metal, [NADP+] 1200 μM): 0.3459 µM/s and 0.3409 µM/s and 0.3451 µM/s
Velocity (Fig. S3b, MnCl2 as metal, [NADP+] 2400 μM): 0.3432 µM/s and 0.3124 µM/s and 0.328 µM/s
